According to patent US10242153B2, “Method for determining the risk profile of neoplastic tissue” (NOVAZOI THERANOSTICS, priority 2014, dated 2019):
Some of these results come from one statement about several compounds together.

System: N1E-115 cells
Assay: Neuritogenesis (neurite extension) in serum-starved N1E-115 cells
Format: cell-based, murine
Details: 48 h, RedBr-Nos 5 μM, Griseofulvin 10 μM
Description: N1E-115 cells grown in serum-starved (SS) medium were evaluated to determine the extent of neurite formation after 48 h of treatment with RedBr-Nos (5 μM), Griseofulvin (10 μM), PJ-34 (10 μM), Paclitaxel (0.05 μM) treatment or untreated control cells (i.e., serum-starved medium (SS) alone). Panels Ai and Aii depict quantitative bar graphs representing the average length of neurites and percentage of population of cells showing neurite length >10 μm, respectively. A hundred cells were counted in each case. […] Panel B depicts an immunoblot showing CLASP1 expression levels in control (C) and CLASP1 siRNA-transfected N1E-115 cells.
Neuritogenesis is a process in nerve cells involving the extension of polarized, elongated neurites. N1E-115 cells usually extend only one major neurite per cell, which can vary in length from 5 to 500 μm. The growth cones of the neurites serve as primary focal points of motility. The effect of declustering agents on cell motility was evaluated by assessing the length and frequency of neurites formed in a serum-free medium on a laminin-coated surface.

reduced-9-bromonoscapine [RBN]
inhibition of neurite extension: 70-80%
